Experimental data from patent US20150266963A1.
No constants are given. Whether binding was seen depends on the method and setting. For some assays here: Binding can be weak; no strength is given. Values belong to the binder of their own block, whether it stands above or below them.

Legend:
[1] = biological target: human-mouse CD70 chimera chim-2.3 (Flag-TNC-CD70); assay: ELISA; captured chimera
[2] = biological target: rhesus recombinant CD70 (FLAG-TNC-rhesus CD70) (rhesus); assay: blocking ELISA; rhesus Flag-TNC-CD70
[3] = biological target: cynomolgus monkey Flag-TNC-CD70 (cynomolgus monkey); assay: blocking ELISA; cynomolgus Flag-TNC-CD70
[4] = biological target: rhesus recombinant CD70 (FLAG-TNC-rhesus CD70) (rhesus); assay: inhibition ELISA on captured FLAG-TNC-rhesus CD70, mAb titrated, remaining binding of CD27-Fc detected
[5] = biological target: rhesus recombinant CD70 (FLAG-TNC-rhesus CD70) (rhesus); assay: Biacore off-rate; rhesus recombinant CD70 on chip

- binding [1]: binds
- binding [2]: binds
- binding [3]: binds
B1: ARGX-110 (non-fucosylated 41D12 human IgG1) (antibody, V domains shown)
VH: EVQLVESGGGLVQPGGSLRLSCAASGFTFSVYYMNWVRQAPGKGLEWVSDINNEGGTTYYADSVKGRFTISRDNSKNSLYLQMNSLRAEDTAVYYCARDAGYSNHVPIFDSWGQGTLVTVSS
VL: QAVVTQEPSLTVSPGGTVTLTCGLKSGSVTSDNFPTWYQQTPGQAPRLLIYNTNTRHSGVPDRFSGSILGNKAALTITGAQADDEAEYFCALFISNPSVEFGGGTQLTVLG

- binding [4]: no binding (tested: log 4 = 10000 ng/ml)
B2: 59D10 chimeric llama-human mAb (antibody, human IgG1, V domains shown)
VH: EVQLVESGGGLVQPGGSLRLSCAASELSFSISEMTWVRQAPGKGLEWVSGISGVTGGSSTSYADSVKGRFTISRDNDKNTLYLQMNSLIPEDTAVYYCATTSGTYYFIPEYEYWGQGTQVTVSS
VL: QSVLTQPPSVSGSPGKTVTISCAGTSSDVGYGYYVSWYQQFPGMAPKLLIYDVNKRASGIADRFSGSKAGNTASLTISGLQSEDEADYYCASYRSSANAVFGGGTHLTVLG

- binding [5]: no binding
B3: 59D10 Fab (Fab, V domains shown)
VH: EVQLVESGGGLVQPGGSLRLSCAASELSFSISEMTWVRQAPGKGLEWVSGISGVTGGSSTSYADSVKGRFTISRDNDKNTLYLQMNSLIPEDTAVYYCATTSGTYYFIPEYEYWGQGTQVTVSS
VL: QSVLTQPPSVSGSPGKTVTISCAGTSSDVGYGYYVSWYQQFPGMAPKLLIYDVNKRASGIADRFSGSKAGNTASLTISGLQSEDEADYYCASYRSSANAVFGGGTHLTVLG
